Test results taken from doi:10.1101/2024.06.14.598964.

Protein sequences, listed by entry. Tags and fused reporters are not part of them. Lines headed by an entry give the natural chain unless they say otherwise; changes in a name come on top.
UniProt Q9UHY1: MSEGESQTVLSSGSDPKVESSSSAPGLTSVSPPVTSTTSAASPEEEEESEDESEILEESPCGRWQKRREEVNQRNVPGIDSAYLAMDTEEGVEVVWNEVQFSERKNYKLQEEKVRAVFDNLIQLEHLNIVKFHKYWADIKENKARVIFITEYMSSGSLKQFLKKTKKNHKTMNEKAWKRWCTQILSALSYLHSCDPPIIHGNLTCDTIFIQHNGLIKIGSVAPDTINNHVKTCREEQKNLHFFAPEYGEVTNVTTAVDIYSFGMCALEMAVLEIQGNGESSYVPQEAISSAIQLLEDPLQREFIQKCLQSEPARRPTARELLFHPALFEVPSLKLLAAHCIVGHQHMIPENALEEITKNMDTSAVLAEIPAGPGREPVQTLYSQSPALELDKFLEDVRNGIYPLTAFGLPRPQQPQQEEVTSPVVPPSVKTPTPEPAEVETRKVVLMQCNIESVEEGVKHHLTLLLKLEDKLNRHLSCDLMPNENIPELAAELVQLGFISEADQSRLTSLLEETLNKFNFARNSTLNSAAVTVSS
UniProt Q9NSY0: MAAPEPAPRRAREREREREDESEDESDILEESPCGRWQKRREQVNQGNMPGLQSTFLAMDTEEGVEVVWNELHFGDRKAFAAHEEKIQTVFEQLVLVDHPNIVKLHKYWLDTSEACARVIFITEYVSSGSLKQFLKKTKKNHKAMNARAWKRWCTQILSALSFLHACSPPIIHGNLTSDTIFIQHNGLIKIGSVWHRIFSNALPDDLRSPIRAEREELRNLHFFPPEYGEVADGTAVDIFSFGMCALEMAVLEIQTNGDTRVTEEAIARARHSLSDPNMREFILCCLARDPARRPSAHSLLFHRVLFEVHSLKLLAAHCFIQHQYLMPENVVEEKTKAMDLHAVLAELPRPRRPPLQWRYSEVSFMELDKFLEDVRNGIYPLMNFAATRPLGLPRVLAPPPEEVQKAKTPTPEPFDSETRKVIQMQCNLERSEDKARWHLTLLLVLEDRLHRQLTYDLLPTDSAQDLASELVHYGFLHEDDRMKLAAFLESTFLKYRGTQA

Molecular target: NRBP1-Flag (full-length NRBP1) expressed in HEK293T cells (human) (UniProt Q9UHY1)
Experiment: co-IP

| binding | Substance |
| --- | --- |
| binds | NRBP2-dNRB-myc (NRBP2 lacking the NRB motif) (from UniProt Q9NSY0) |
| binds | NRBP2-dDimer-myc (NRBP2 lacking the dimerization region) (from UniProt Q9NSY0) |

No constants are given. Whether binding was seen depends on the method and setting. In cells and extracts the contact can be indirect. Binding can be weak; no strength is given.
